Test results from publication PMC8547954, “Myopalladin knockout mice develop cardiac dilation and show a maladaptive response to mechanical pressure overload” (eLife, 2021).
No constants are given. Whether binding was seen depends on the method and setting. Binding calls can cover weak binding; strength is not graded here.

B1: MYPN C-terminal region from residue 935 to 1320, containing its three C-terminal Ig domains (domain or fragment, UniProt Q86TC9-1 935-1320)
chain: DEIPTGKCIAPIFDKRLKHFRVTEGSPVTFTCKIVGIPVPKVYWFKDGKQISKRNEHCKMRREGDGTCSLHIESTTSDDDGNYTIMAANPQGRISCSGHLMVQSLPIRSRLTSAGQSHRGRSRVQERDKEPLQERFFRPHFLQAPGDMVAHEGRLCRLDCKVSGLPPPELTWLLNGQPVLPDASHKMLVRETGVHSLLIDPLTQRDAGTYKCIATNKTGQNSFSLELSVVAKEVKKAPVILEKLQNCGVPEGHPVRLECRVIGMPPPVFYWKKDNETIPCTRERISMHQDTTGYACLLIQPAKKSDAGWYTLSAKNEAGIVSCTARLDIYAQWHHQIPPPMSVRPSGSRYGSLTSKGLDIFSAFSSMESTMVYSCSSRSVVESDEL
B2: PALLD C-terminal region (Res. 794-1123) in pGADT7 (domain or fragment, UniProt Q8WX93-9 794-1123)
chain: PFFEMKLKHYKIFEGMPVTFTCRVAGNPKPKIYWFKDGKQISPKSDHYTIQRDLDGTCSLHTTASTLDDDGNYTIMAANPQGRISCTGRLMVQAVNQRGRSPRSPSGHPHVRRPRSRSRDSGDENEPIQERFFRPHFLQAPGDLTVQEGKLCRMDCKVSGLPTPDLSWQLDGKPVRPDSAHKMLVRENGVHSLIIEPVTSRDAGIYTCIATNRAGQNSFSLELVVAAKEAHKPPVFIEKLQNTGVADGYPVRLECRVLGVPPPQIFWKKENESLTHSTDRVSMHQDNHGYICLLIQGATKEDAGWYTVSAKNEAGIVSCTARLDVYISRH

Target: titin Ig domains Z4-Z5 in pGBKT7 DNA-BD (human)
Assay: two-hybrid; co-transformation of pGBKT7 DNA-BD and pGADT7 AD constructs into the Y2H Gold strain; SD/-Ade/-His/-Leu/-Trp with 120 ng/ml Aureobasidin A and 40 µg/ml X-alpha-Gal, 3-4 days at 30°C

Binder	binding
B1	binds
B2	binds
